Some of the results follow.
Key:
Assay in all cases: log2 fold change, soluble protein after heating vs DMSO (PISA); higher = thermal stabilisation; K562 cells, 10 uM, 30 min; active = over 0.2 and 3.5 SD of the protein, either way, in both replicates (recomputed)
[1] = compound: NC(=O)Nc1cc(-c2cccc(F)c2)sc1C(=O)N[C@H]1CCCNC1
Summary of the method: (§1)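 Soluble protein was quantified by TMTpro 16plex LC-MS/MS after channel sums were equalised. It was obtained as the supernatant after 21,000xg for 90 min from pooled aliquots of K562 cells (2×10^6 cells/mL, 10 μM compound, 30 min) heated for 3 min across 48°C-58°C and extracted in PBS with 0.5% NP-40 at 4°C. Thermal stability values are relative to control samples and come from duplicates. They are given as log2 fold changes.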

By UniProt entry, the sequences of proteins in these tests, tags left out. Where a name states a change or a piece, a line headed by the entry shows the natural chain unless it says otherwise.
UniProt Q9H0U4: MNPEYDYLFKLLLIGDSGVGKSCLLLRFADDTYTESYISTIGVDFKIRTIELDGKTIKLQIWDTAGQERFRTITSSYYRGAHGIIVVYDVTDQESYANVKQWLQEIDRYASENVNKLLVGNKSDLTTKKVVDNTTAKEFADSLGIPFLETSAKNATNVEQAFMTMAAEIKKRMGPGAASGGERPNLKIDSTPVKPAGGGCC
UniProt Q969Q5: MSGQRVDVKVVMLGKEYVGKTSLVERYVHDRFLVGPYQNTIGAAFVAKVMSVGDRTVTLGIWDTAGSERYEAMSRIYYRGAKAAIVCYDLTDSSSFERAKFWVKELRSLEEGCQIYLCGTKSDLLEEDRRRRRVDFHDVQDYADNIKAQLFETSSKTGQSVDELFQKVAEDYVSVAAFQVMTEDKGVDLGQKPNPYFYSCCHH
UniProt Q92930: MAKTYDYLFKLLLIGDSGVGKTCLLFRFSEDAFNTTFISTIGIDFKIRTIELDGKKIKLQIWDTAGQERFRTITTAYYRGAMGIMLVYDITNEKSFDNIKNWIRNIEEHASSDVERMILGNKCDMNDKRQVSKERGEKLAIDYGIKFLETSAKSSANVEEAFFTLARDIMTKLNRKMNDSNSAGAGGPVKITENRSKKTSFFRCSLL
UniProt Q3YEC7: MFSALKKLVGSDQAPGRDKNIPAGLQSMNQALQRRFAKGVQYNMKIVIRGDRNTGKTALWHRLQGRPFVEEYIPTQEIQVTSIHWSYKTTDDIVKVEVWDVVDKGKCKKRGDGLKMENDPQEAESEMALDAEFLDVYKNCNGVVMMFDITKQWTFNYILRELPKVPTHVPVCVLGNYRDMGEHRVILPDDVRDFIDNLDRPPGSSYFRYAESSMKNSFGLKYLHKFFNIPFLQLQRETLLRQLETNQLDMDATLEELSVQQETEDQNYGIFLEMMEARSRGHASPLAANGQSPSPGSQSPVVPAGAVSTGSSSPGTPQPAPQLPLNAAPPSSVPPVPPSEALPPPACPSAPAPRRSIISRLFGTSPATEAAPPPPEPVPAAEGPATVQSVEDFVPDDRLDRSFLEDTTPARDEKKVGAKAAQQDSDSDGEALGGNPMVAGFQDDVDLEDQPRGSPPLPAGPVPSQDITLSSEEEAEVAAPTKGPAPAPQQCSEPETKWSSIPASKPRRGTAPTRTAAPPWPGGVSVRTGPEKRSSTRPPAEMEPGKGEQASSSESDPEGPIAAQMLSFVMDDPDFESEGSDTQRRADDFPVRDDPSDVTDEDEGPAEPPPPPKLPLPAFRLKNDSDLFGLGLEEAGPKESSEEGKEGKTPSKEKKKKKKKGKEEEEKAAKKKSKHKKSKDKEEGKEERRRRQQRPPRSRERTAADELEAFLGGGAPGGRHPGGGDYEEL
UniProt P61224: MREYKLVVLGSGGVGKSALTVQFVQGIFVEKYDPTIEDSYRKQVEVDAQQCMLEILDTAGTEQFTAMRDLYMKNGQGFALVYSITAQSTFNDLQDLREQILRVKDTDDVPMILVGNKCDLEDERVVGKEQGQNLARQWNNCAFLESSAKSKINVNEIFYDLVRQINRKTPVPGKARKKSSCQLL
UniProt Q15907: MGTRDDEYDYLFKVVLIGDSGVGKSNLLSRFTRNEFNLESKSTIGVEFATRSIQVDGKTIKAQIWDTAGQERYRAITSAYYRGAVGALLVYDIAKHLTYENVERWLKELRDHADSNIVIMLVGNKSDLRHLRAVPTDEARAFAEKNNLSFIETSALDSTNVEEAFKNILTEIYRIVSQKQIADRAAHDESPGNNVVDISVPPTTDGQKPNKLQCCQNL
UniProt Q9NW64: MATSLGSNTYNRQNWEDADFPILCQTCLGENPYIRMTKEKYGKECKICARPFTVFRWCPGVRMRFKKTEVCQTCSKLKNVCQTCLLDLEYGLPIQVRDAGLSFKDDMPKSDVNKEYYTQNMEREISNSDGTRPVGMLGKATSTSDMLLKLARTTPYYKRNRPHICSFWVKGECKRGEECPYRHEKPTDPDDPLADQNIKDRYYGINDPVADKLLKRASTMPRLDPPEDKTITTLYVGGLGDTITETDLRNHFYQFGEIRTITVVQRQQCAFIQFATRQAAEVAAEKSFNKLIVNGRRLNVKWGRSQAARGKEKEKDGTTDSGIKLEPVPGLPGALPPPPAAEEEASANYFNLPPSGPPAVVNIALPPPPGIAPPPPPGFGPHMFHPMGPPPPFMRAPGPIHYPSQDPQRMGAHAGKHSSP
UniProt Q9NX57: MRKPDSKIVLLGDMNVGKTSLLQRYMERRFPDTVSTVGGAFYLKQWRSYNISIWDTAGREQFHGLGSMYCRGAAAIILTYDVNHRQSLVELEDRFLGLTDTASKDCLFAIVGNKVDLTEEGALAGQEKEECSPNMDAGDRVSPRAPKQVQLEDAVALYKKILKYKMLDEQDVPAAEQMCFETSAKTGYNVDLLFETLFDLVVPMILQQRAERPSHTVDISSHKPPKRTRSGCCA
UniProt Q9UL25: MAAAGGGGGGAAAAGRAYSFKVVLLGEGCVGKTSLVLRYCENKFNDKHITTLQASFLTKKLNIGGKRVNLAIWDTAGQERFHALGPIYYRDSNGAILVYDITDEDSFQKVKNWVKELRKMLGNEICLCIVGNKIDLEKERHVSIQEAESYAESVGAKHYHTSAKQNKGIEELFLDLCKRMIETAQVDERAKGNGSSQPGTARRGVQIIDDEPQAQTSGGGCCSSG
UniProt Q96EV2: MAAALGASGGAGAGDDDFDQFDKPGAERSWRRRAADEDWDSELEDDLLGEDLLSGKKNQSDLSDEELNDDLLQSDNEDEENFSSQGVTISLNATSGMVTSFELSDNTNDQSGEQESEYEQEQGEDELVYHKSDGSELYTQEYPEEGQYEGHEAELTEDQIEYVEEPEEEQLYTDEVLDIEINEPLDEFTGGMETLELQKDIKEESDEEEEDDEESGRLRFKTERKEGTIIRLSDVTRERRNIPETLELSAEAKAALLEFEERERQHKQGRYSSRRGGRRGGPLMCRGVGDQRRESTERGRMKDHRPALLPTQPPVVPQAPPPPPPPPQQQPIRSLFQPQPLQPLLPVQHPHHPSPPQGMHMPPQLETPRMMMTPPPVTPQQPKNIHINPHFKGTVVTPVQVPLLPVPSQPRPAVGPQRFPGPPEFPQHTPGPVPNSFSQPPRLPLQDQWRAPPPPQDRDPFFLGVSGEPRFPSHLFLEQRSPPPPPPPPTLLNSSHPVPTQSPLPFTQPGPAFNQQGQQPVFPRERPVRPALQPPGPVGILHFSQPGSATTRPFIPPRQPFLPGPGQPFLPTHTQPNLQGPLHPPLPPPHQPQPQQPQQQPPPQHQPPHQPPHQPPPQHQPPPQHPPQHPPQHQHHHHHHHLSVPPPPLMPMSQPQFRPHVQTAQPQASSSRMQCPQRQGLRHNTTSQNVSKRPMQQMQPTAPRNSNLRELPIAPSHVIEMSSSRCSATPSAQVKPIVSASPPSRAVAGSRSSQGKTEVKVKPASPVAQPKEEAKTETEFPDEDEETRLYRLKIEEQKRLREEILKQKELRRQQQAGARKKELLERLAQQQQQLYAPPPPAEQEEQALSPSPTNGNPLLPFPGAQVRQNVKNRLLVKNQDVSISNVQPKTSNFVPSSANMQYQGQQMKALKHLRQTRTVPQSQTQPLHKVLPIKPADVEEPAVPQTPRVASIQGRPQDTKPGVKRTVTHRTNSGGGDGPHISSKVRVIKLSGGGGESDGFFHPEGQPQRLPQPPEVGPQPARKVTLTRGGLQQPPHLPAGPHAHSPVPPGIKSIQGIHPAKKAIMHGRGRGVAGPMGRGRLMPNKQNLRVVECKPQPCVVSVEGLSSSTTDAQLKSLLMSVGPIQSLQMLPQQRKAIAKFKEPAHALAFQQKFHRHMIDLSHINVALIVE
UniProt Q53S08: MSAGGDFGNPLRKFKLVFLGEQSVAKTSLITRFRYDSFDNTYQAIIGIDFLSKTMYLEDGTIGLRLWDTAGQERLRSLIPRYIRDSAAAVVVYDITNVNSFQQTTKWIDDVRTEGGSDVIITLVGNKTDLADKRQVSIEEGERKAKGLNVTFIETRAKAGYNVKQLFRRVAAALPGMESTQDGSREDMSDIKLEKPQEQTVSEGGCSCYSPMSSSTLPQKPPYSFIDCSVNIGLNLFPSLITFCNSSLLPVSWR
UniProt Q96E17: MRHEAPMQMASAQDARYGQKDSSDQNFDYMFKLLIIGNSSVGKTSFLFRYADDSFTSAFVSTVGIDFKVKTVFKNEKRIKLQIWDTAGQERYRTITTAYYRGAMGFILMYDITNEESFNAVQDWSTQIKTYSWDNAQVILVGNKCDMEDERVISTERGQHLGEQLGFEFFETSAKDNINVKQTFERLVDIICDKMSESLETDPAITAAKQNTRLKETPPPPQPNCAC
UniProt P20340: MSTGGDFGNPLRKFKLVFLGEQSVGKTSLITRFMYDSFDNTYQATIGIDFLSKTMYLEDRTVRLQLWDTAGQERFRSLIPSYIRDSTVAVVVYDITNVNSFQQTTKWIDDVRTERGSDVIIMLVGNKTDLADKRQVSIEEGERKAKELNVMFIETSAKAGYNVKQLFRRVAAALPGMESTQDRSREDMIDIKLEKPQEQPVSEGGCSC
UniProt P61225: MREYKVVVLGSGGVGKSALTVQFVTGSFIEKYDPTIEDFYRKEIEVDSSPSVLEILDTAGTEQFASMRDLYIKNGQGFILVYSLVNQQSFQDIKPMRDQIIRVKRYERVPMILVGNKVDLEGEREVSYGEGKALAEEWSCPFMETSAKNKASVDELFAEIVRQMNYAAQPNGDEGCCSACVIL
UniProt Q15283: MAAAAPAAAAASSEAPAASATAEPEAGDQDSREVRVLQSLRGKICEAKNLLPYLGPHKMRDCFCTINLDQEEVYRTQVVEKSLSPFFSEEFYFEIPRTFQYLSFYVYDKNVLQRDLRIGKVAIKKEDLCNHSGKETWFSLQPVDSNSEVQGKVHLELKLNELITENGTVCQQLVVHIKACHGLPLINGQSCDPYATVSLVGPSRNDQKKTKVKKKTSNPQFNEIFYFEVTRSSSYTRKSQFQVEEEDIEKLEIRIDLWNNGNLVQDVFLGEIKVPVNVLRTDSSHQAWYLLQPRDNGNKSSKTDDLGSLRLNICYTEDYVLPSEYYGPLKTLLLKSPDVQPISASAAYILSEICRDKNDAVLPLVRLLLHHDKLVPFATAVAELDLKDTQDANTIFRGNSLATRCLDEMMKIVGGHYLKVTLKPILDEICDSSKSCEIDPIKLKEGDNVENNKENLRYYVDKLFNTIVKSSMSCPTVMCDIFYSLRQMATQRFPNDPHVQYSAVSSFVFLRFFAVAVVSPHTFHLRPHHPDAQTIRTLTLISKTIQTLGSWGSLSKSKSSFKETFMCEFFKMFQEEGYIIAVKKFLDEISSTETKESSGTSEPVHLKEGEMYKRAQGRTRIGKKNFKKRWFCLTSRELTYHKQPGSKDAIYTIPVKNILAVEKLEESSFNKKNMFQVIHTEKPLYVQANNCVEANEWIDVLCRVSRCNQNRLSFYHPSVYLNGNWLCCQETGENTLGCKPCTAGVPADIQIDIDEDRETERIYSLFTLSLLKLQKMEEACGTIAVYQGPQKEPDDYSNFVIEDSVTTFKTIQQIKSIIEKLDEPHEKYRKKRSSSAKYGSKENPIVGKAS
UniProt P61006: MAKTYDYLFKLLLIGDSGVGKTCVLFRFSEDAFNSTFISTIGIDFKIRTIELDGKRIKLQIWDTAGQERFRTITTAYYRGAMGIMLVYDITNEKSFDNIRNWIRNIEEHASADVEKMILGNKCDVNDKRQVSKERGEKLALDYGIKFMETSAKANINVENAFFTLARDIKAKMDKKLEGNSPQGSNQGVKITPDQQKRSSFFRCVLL
UniProt P62491: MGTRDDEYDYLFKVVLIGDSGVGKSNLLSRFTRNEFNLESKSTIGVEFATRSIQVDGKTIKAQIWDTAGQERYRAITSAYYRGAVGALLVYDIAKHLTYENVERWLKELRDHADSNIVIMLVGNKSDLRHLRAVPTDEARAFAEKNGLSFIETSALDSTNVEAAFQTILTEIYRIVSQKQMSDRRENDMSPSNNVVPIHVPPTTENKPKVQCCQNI
UniProt Q5T160: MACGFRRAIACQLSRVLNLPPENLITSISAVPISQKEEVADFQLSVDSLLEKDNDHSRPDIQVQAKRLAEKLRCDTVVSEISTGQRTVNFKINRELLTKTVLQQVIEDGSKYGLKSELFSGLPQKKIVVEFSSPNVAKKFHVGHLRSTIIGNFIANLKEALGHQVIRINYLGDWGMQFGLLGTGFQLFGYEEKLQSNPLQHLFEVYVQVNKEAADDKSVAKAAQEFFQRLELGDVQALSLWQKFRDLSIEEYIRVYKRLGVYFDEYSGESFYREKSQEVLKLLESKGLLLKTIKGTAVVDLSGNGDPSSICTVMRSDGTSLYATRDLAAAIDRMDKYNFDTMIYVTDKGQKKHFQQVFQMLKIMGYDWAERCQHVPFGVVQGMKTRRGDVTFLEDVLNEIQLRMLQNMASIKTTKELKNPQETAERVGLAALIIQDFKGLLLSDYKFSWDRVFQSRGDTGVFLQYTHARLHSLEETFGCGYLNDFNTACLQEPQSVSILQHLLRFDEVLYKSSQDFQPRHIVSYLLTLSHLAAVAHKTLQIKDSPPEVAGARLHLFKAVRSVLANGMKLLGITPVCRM

[2] = compound: NC(=O)c1cnc(N[C@@H]2CCCC[C@@H]2N)nc1Nc1cccc(-n2nccn2)c1
Summary of the method: as §1

[3] = compound: NC1(c2ccc(-c3nc4ccn5c(=O)[nH]nc5c4cc3-c3ccccc3)cc2)CCC1
Summary of the method: as §1

[4] = compound: NCC(=O)Nc1ccc(-n2nc(C(F)(F)F)cc2-c2ccc3c(ccc4ccccc43)c2)cc1
Summary of the method: as §1

entinostat = compound: Nc1ccccc1NC(=O)c1ccc(CNC(=O)OCc2cccnc2)cc1 [entinostat]
Summary of the method: as §1

vorinostat = compound: O=C(CCCCCCC(=O)Nc1ccccc1)NO [vorinostat]
Summary of the method: as §1

citarinostat = compound: O=C(CCCCCCNC(=O)c1cnc(N(c2ccccc2)c2ccccc2Cl)nc1)NO [citarinostat]
Summary of the method: as §1

silmitasertib = compound: O=C(O)c1ccc2c(c1)nc(Nc1cccc(Cl)c1)c1ccncc12 [silmitasertib]
Summary of the method: as §1

[5] = compound: O=C1NC(=O)C(c2cnc3ccccn23)=C1c1cn2c3c(cc(F)cc13)CN(C(=O)N1CCCCC1)CC2
Summary of the method: as §1

[6] = compound: c1cc(OCCN2CCCCC2)cc(-c2n[nH]c3ccc(-c4nnc[nH]4)cc23)c1
Summary of the method: as §1

Row | Target | log2 fold change [1] | log2 fold change [2] | log2 fold change [3] | log2 fold change [4] | log2 fold change (entinostat) | log2 fold change (vorinostat) | log2 fold change (citarinostat) | log2 fold change (silmitasertib) | log2 fold change [5] | log2 fold change [6]
1 | RAB1B (UniProt Q9H0U4) | inactive: -0.13 | inactive: -0.098 | inactive: -0.056 | inactive: -0.039 | inactive: -0.035 | inactive: -0.037 | inactive: -0.061 | inactive: 0.079 | inactive: -0.002 | inactive: -0.061
2 | RAB5C isoform 2 (UniProt P51148) | inactive: 0.092 | inactive: 0.041 | inactive: 0.017 | inactive: 0.051 | inactive: 0.007 | inactive: -0.001 | inactive: -0.004 | inactive: -0.009 | inactive: 0.049 | inactive: -0.028
3 | RAB24 (UniProt Q969Q5) | inactive: 0.036 | inactive: 0.025 | inactive: -0.018 | inactive: -0.014 | inactive: 0.003 | inactive: -0.035 | inactive: -0.003 | inactive: -0.015 | inactive: -0.031 | inactive: 0.06
4 | RAB43 (UniProt Q86YS6) | inactive: -0.002 | inactive: -0.003 | inactive: 0.017 | inactive: 0.058 | inactive: -0.093 | inactive: -0.061 | inactive: 0.038 | inactive: -0.048 | inactive: -0.065 | inactive: -0.087
5 | RAB8B (UniProt Q92930) | inactive: 0.203 | inactive: 0.017 | inactive: -0.053 | inactive: 0.2 | inactive: 0.116 | inactive: 0.073 | inactive: 0.03 | inactive: -0.049 | inactive: -0.013 | inactive: 0.093
6 | RABL6 (UniProt Q3YEC7) | inactive: 0.05 | inactive: 0.009 | inactive: 0.022 | inactive: 0.033 | inactive: -0.007 | inactive: -0.057 | inactive: 0.003 | inactive: -0.043 | inactive: 0.004 | inactive: -0.007
7 | RAP1B (UniProt P61224) | inactive: -0.009 | inactive: 0.067 | inactive: 0.052 | inactive: 0.057 | inactive: -0.035 | inactive: 0.003 | inactive: -0.005 | inactive: -0.015 | inactive: 0.012 | inactive: 0.032
8 | RANBP17 (UniProt Q9H2T7) | inactive: -0.108 | inactive: -0.586 | inactive: -0.152 | inactive: -0.173 | inactive: 0.122 | inactive: 0.019 | inactive: 0.026 | inactive: -0.079 | inactive: -0.3 | inactive: -0.185
9 | RAC1 (UniProt P63000) | inactive: 0.093 | inactive: 0.043 | inactive: 0.018 | inactive: 0.051 | inactive: 0.047 | inactive: 0.084 | inactive: -0.087 | inactive: -0.078 | inactive: 0.065 | inactive: 0.146
10 | RAB11B (UniProt Q15907) | inactive: -0.013 | inactive: 0.02 | inactive: -0.017 | inactive: 0.013 | inactive: -0.024 | inactive: -0.061 | inactive: 0.024 | inactive: -0.001 | inactive: -0.029 | inactive: -0.017
11 | RBM22 (UniProt Q9NW64) | inactive: -0.027 | inactive: -0.004 | inactive: 0.032 | inactive: -0.049 | inactive: -0.008 | inactive: -0.009 | inactive: -0.038 | inactive: 0.119 | inactive: -0.063 | inactive: -0.043
12 | RAB20 (UniProt Q9NX57) | inactive: -0.034 | inactive: 0.015 | inactive: -0.009 | inactive: 0.002 | inactive: -0.003 | inactive: -0.036 | inactive: 0.054 | inactive: 0 | inactive: 0.059 | inactive: -0.088
13 | RAB21 (UniProt Q9UL25) | inactive: -0.008 | inactive: -0.042 | inactive: -0.051 | inactive: -0.081 | inactive: -0.03 | inactive: 0.089 | inactive: 0.015 | inactive: 0 | inactive: -0.024 | inactive: -0.064
14 | RABEPK (UniProt Q7Z6M1) | inactive: -0.002 | inactive: 0.062 | inactive: 0.04 | inactive: 0.063 | inactive: -0.029 | inactive: 0.022 | inactive: 0.013 | inactive: -0.022 | inactive: -0.062 | inactive: 0.021
15 | RAF1 isoform 2 (UniProt P04049) | inactive: -0.208 | inactive: -0.012 | inactive: 0.086 | inactive: -0.017 | inactive: -0.033 | inactive: 0.069 | inactive: -0.037 | inactive: -0.033 | inactive: -0.13 | inactive: -0.133
16 | RBM33 (UniProt Q96EV2) | inactive: 0.019 | inactive: -0.055 | inactive: -0.024 | inactive: 0.003 | inactive: 0.027 | inactive: 0.037 | inactive: 0.042 | inactive: 0.038 | inactive: -0.003 | inactive: -0.046
17 | RAB6D (UniProt Q53S08) | inactive: -0.009 | inactive: 0.006 | inactive: -0.081 | inactive: -0.014 | inactive: -0.015 | inactive: -0.041 | inactive: 0.011 | inactive: -0.007 | inactive: -0.013 | inactive: -0.058
18 | RANBP10 (UniProt Q6VN20) | inactive: 0.098 | inactive: 0.002 | inactive: -0.055 | inactive: -0.1 | inactive: -0.021 | inactive: 0.021 | inactive: -0.176 | inactive: 0.068 | inactive: 0.051 | inactive: -0.054
19 | RAB3C (UniProt Q96E17) | inactive: 0.038 | inactive: 0.032 | inactive: 0.049 | inactive: 0.07 | inactive: 0.008 | inactive: -0.018 | inactive: 0.034 | inactive: 0.073 | inactive: -0.046 | inactive: 0.009
20 | RACK1 (UniProt D6RHH4) | inactive: -0.43 | inactive: -0.192 | inactive: 0.064 | inactive: -0.264 | inactive: 0.172 | inactive: -0.052 | inactive: -0.164 | inactive: 0.02 | inactive: -0.509 | inactive: -0.123
21 | RAB6A isoform 2 (UniProt P20340) | inactive: 0.023 | inactive: 0.02 | inactive: 0 | inactive: 0.006 | inactive: -0.002 | inactive: -0.021 | inactive: -0.041 | inactive: -0.013 | inactive: -0.161 | inactive: 0.006
22 | RAP2B (UniProt P61225) | inactive: 0.083 | inactive: 0.034 | inactive: 0 | inactive: 0.063 | inactive: -0.001 | inactive: -0.068 | inactive: 0.028 | inactive: -0.045 | inactive: 0.013 | inactive: -0.031
23 | RAP2C (UniProt Q9Y3L5) | inactive: 0.072 | active: 0.299 | inactive: 0.133 | inactive: 0.118 | inactive: -0.045 | inactive: 0.051 | inactive: 0.056 | inactive: -0.04 | inactive: -0.008 | inactive: -0.061
24 | RASA2 (UniProt Q15283) | inactive: 0.105 | inactive: -0.495 | inactive: -0.105 | inactive: -0.24 | inactive: -0.094 | inactive: 0.017 | inactive: -0.317 | inactive: 0.064 | inactive: 0.151 | inactive: -0.047
25 | RBM27 (UniProt Q9P2N5) | inactive: -0.151 | inactive: -0.015 | inactive: -0.058 | inactive: -0.042 | inactive: 0.044 | inactive: 0.125 | inactive: 0.04 | inactive: -0.078 | inactive: -0.056 | inactive: -0.064
26 | RAN (UniProt P62826) | inactive: -0.028 | inactive: -0.024 | inactive: 0.024 | inactive: -0.03 | inactive: -0.012 | inactive: -0.033 | inactive: -0.019 | inactive: 0 | inactive: -0.017 | inactive: -0.008
27 | RAB8A (UniProt P61006) | inactive: 0.108 | inactive: 0.031 | inactive: 0.018 | inactive: 0.017 | inactive: -0.049 | inactive: -0.075 | inactive: -0.046 | inactive: -0.022 | inactive: -0.035 | inactive: -0.033
28 | RAB11A (UniProt P62491) | inactive: -0.017 | inactive: -0.009 | inactive: 0.007 | inactive: -0.171 | inactive: -0.009 | inactive: -0.107 | inactive: 0.001 | inactive: 0.022 | inactive: 0.195 | inactive: -0.059
29 | RAB32 (UniProt Q13637) | inactive: 0.034 | inactive: 0.065 | inactive: -0.039 | inactive: -0.034 | inactive: -0.015 | inactive: 0.013 | inactive: 0.003 | inactive: 0.001 | inactive: 0.041 | inactive: 0.037
30 | RARS2 (UniProt Q5T160) | inactive: 0.042 | inactive: -0.035 | inactive: -0.182 | inactive: -0.043 | inactive: 0.03 | inactive: 0.029 | inactive: 0.048 | inactive: 0.006 | inactive: -0.022 | inactive: -0.053

Full records, quoted from the list. Values in the order: log2 fold change [1]	log2 fold change [2]	log2 fold change [3]	log2 fold change [4]	log2 fold change (entinostat)	log2 fold change (vorinostat)	log2 fold change (citarinostat)	log2 fold change (silmitasertib)	log2 fold change [5]	log2 fold change [6]
RAB43 (UniProt Q86YS6) is listed with inactive: -0.002	inactive: -0.003	inactive: 0.017	inactive: 0.058	inactive: -0.093	inactive: -0.061	inactive: 0.038	inactive: -0.048	inactive: -0.065	inactive: -0.087
RBM22 (UniProt Q9NW64) is listed with inactive: -0.027	inactive: -0.004	inactive: 0.032	inactive: -0.049	inactive: -0.008	inactive: -0.009	inactive: -0.038	inactive: 0.119	inactive: -0.063	inactive: -0.043

Reference: the supplement of paper PMC10849652
